# Counter-ions that a name gives are not always drawn. The list shows a part of the results. Repeats in this data set agree poorly, so a single value says little.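 About 40 Schistosoma mansoni schistosomula per well were imaged over time in bright field and compared with 0.1% DMSO wells. A drug counts as a hit if its Mahalanobis distance reaches 2.47 or more, three standard deviations above the DMSO control mean. Degeneracy is the fraction of worms scored opaque.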 Bridge positions count the residues as written; N and C are the ends. Square brackets hold non-standard residues; d marks the D form. Peptide text beside a SMILES is read from it. * marks the point of attachment. Ileψ(thiazoline)Cys = CC[C@H](C)[C@H](N)C1=N[C@H](C(=O)*)CS1; dOrn = NCCC[C@@H](N)C(=O)O
# System: Schistosoma mansoni schistosomula
# Assay: Mahalanobis distance of static-rate-frequency phenotype descriptors from DMSO controls (dimensionless); higher = stronger phenotypic change versus DMSO
# Details: 10 µM; 72 h
row,Compound,Mahalanobis distance
1,CC[C@H](C)[C@H](N)C1=N[C@H](C(=O)N[C@@H](CC(C)C)C(=O)N[C@H](CCC(=O)O)C(=O)N[C@H](C(=O)N[C@H]2CCCCNC(=O)[C@H](CC(N)=O)NC(=O)[C@@H](CC(=O)O)NC(=O)[C@H](Cc3cnc[nH]3)NC(=O)[C@@H](Cc3ccccc3)NC(=O)[C@H]([C@@H](C)CC)NC(=O)[C@@H](CCCN)NC2=O)[C@@H](C)CC)CS1 [Bacitracin] ({Ileψ(thiazoline)Cys}-L[dE]IK[dOrn]I[dF]H[dD]N; lactam 4-C),inactive: 1.46
2,CC(=O)NS(=O)(=O)c1ccc(NC(=O)c2ccccc2C(=O)O)cc1 [Phthalylsulfacetamide],inactive: 1.57
3,OC(CNCC(O)C1CCc2cc(F)ccc2O1)C1CCc2cc(F)ccc2O1 (centres undefined) [Nebivolol Hydrochloride],inactive: 1.48
4,COc1ccc(OC)c(C(O)CNC(=O)CN)c1 (centres undefined) [Midodrine],inactive: 2.26
5,CC(S)C(=O)NCC(=O)O (centres undefined) [Tiopronin],inactive: 1.13
6,CN1CCN(CCCN2c3ccccc3Sc3ccc(C(F)(F)F)cc32)CC1 [trifluoperazine],active: 2.6
7,CN1CCN(C(c2ccccc2)c2ccccc2)CC1 [Cyclizine],inactive: 1.71
8,C[C@]12CC[C@@H]3c4ccc(OC(=O)c5ccccc5)cc4CC[C@H]3[C@@H]1CC[C@@H]2O [Estradiol Benzoate],inactive: 2.06
9,O=C(O)c1ccccc1C(=O)Nc1ccc(S(=O)(=O)Nc2nccs2)cc1 [Phthalylsulfathiazole],active: 2.57
10,C[N+](C)(C)CC(=O)O [Betaine],active: 2.86
11,OCCN(CCO)c1nc(N2CCCCC2)c2nc(N(CCO)CCO)nc(N3CCCCC3)c2n1 [Dipyridamole],inactive: 2.47
12,C[C@@H]1C[C@H]2[C@@H]3CCC4=CC(=O)C=C[C@]4(C)[C@@]3(F)[C@@H](O)C[C@]2(C)[C@@]1(O)C(=O)COP(=O)(O)O [Dexamethasone Phosphate],inactive: 1.62
13,C[C@@H]1C[C@H]2[C@@H]3CCC4=CC(=O)C=C[C@]4(C)[C@@]3(F)[C@@H](O)C[C@]2(C)[C@@]1(O)C(=O)COP(=O)(O)O [Dexamethasone Sodium Phosphate],inactive: 1.82
14,CCN(CC)CCNC(C(=O)OCCC(C)C)c1ccccc1 (centres undefined) [Camylofine Dihydrochloride],inactive: 2.19
15,C(=C\c1ccccc1)/CN1CCN(C(c2ccccc2)c2ccccc2)CC1 [Cinnarazine],active: 2.63
16,Cc1c(-c2cnccn2)ssc1=S [oltipraz],inactive: 2.35
17,CN1CCC(=C2c3ccccc3Sc3ccccc32)CC1 [Pimethixene Maleate],inactive: 2.23
18,N[C@@H](Cc1cc(I)c(Oc2ccc(O)c(I)c2)c(I)c1)C(=O)O [Liothyronine],inactive: 1.66
19,CC1CC(OC(=O)c2ccccc2O)CC(C)(C)C1 (centres undefined) [Homosalate],inactive: 2.24
20,O=C(CCCN1CCN(c2ccccn2)CC1)c1ccc(F)cc1 [Azaperone],active: 3.86
21,C[C@@H](O)[C@@H]1NC(=O)[C@H](CCCCN)NC(=O)[C@@H](Cc2c[nH]c3ccccc23)NC(=O)[C@H](Cc2ccccc2)NC(=O)[C@@H](NC(=O)[C@H](N)Cc2ccccc2)CSSC[C@@H](C(=O)N[C@H](CO)[C@@H](C)O)NC1=O [Octreotide],inactive: 1.91
22,CC[C@@H]1C(=O)OC[C@@H]1Cc1cncn1C [Pilocarpine],inactive: 1.75

# An excerpt of these results, with bars between the fields.
row | Compound | Mahalanobis distance
10 | C[N+](C)(C)CC(=O)O [Betaine] | active: 2.86
11 | OCCN(CCO)c1nc(N2CCCCC2)c2nc(N(CCO)CCO)nc(N3CCCCC3)c2n1 [Dipyridamole] | inactive: 2.47
12 | C[C@@H]1C[C@H]2[C@@H]3CCC4=CC(=O)C=C[C@]4(C)[C@@]3(F)[C@@H](O)C[C@]2(C)[C@@]1(O)C(=O)COP(=O)(O)O [Dexamethasone Phosphate] | inactive: 1.62
13 | C[C@@H]1C[C@H]2[C@@H]3CCC4=CC(=O)C=C[C@]4(C)[C@@]3(F)[C@@H](O)C[C@]2(C)[C@@]1(O)C(=O)COP(=O)(O)O [Dexamethasone Sodium Phosphate] | inactive: 1.82
14 | CCN(CC)CCNC(C(=O)OCCC(C)C)c1ccccc1 (centres undefined) [Camylofine Dihydrochloride] | inactive: 2.19
15 | C(=C\c1ccccc1)/CN1CCN(C(c2ccccc2)c2ccccc2)CC1 [Cinnarazine] | active: 2.63
16 | Cc1c(-c2cnccn2)ssc1=S [oltipraz] | inactive: 2.35
17 | CN1CCC(=C2c3ccccc3Sc3ccccc32)CC1 [Pimethixene Maleate] | inactive: 2.23
18 | N[C@@H](Cc1cc(I)c(Oc2ccc(O)c(I)c2)c(I)c1)C(=O)O [Liothyronine] | inactive: 1.66
19 | CC1CC(OC(=O)c2ccccc2O)CC(C)(C)C1 (centres undefined) [Homosalate] | inactive: 2.24
20 | O=C(CCCN1CCN(c2ccccn2)CC1)c1ccc(F)cc1 [Azaperone] | active: 3.86
21 | C[C@@H](O)[C@@H]1NC(=O)[C@H](CCCCN)NC(=O)[C@@H](Cc2c[nH]c3ccccc23)NC(=O)[C@H](Cc2ccccc2)NC(=O)[C@@H](NC(=O)[C@H](N)Cc2ccccc2)CSSC[C@@H](C(=O)N[C@H](CO)[C@@H](C)O)NC1=O [Octreotide] | inactive: 1.91
22 | CC[C@@H]1C(=O)OC[C@@H]1Cc1cncn1C [Pilocarpine] | inactive: 1.75

# Continued.

row,Compound,Mahalanobis distance
1,CN1C(=O)CC[C@H]1c1cccnc1 [Cotinine],inactive: 2.05
2,Cc1c(NC(=O)c2cccnc2)c(=O)n(-c2ccccc2)n1C [Nifenazone],inactive: 1.94
3,NC(=O)CCCCC1CCSS1 (centres undefined) [Lipoamide],inactive: 1.69
4,C=C(C)[C@H]1CC=C(C)CC1 [D-limonene],inactive: 2.18
5,N[C@@H](Cc1c[nH]c2ccccc12)C(=O)O [Tryptophan],active: 2.89
6,O=C(OOC(=O)c1ccccc1)c1ccccc1 [Benzoyl Peroxide],inactive: 1.56
7,CC(O)Cn1cnc2c1c(=O)n(C)c(=O)n2C (centres undefined) [Proxyphylline],active: 2.95
8,CC(=O)NS(=O)(=O)c1ccc(N)cc1 [Sulfacetamide],inactive: 1.79
9,C=CC1=C(C(=O)O)N2C(=O)[C@@H](NC(=O)/C(=N\O)c3csc(N)n3)[C@H]2SC1 [cefdinir],inactive: 2.05
10,OCc1ccccc1O[C@@H]1O[C@H](CO)[C@@H](O)[C@H](O)[C@H]1O [Salicin],inactive: 1.51
11,COc1cccc2c1C(=O)c1c(O)c3c(c(O)c1C2=O)C[C@@](O)(C(C)=O)C[C@@H]3O[C@H]1C[C@H](N)[C@H](O)[C@H](C)O1 [Daunorubicin],active: 4.22
12,O=c1oc2c(O)c(O)cc3c(=O)oc4c(O)c(O)cc1c4c23 [Ellagic Acid],inactive: 1.86
13,O=c1n(CCCN2CCN(c3cccc(Cl)c3)CC2)nc2ccccn12 [Trazodone],inactive: 1.11
14,CC(=O)NCCCCCC(=O)O [Acexamic Acid],inactive: 2.02
15,O=C(O)c1cc(=O)[nH]c(=O)[nH]1 [Orotic Acid],inactive: 1.54
16,C=C[C@H]1CN2CC[C@H]1C[C@H]2[C@H](O)c1ccnc2ccc(OC)cc12 [Quinine Sulfate],active: 2.69
17,C=C[C@H]1CN2CC[C@H]1C[C@H]2[C@H](O)c1ccnc2ccc(OC)cc12 [Quinine],inactive: 2.02
18,CC1(C)S[C@@H]2[C@H](NC(=O)[C@H](N)c3ccccc3)C(=O)N2[C@H]1C(=O)O [Ampicillin Sodium],inactive: 1.71
19,CCC(NC(C)C)C(O)c1ccc(O)c2[nH]c(=O)ccc12 (centres undefined) [Procaterol Hcl Hemihydrate],inactive: 2.16
20,O=C(O)c1ccccc1OP(=O)(O)O [Fosfosal],inactive: 2.25
21,C/C=C(/C(=C/C)c1ccc(O)cc1)c1ccc(O)cc1 [Dienestrol],inactive: 1.93
22,Cc1ncc([N+](=O)[O-])n1CC(C)O (centres undefined) [Secnidazole],inactive: 1.46
